Reference: the supplement of paper PMC12067093, “Discovery and optimisation of a covalent ligand for TRIM25 and its application to targeted protein ubiquitination” (Chemical Science, 2025)
This is one part of the list.

By UniProt entry, the sequences of proteins in these tests, tags left out. Where a name states a change or a piece, a line headed by the entry shows the natural chain unless it says otherwise.
UniProt P27708: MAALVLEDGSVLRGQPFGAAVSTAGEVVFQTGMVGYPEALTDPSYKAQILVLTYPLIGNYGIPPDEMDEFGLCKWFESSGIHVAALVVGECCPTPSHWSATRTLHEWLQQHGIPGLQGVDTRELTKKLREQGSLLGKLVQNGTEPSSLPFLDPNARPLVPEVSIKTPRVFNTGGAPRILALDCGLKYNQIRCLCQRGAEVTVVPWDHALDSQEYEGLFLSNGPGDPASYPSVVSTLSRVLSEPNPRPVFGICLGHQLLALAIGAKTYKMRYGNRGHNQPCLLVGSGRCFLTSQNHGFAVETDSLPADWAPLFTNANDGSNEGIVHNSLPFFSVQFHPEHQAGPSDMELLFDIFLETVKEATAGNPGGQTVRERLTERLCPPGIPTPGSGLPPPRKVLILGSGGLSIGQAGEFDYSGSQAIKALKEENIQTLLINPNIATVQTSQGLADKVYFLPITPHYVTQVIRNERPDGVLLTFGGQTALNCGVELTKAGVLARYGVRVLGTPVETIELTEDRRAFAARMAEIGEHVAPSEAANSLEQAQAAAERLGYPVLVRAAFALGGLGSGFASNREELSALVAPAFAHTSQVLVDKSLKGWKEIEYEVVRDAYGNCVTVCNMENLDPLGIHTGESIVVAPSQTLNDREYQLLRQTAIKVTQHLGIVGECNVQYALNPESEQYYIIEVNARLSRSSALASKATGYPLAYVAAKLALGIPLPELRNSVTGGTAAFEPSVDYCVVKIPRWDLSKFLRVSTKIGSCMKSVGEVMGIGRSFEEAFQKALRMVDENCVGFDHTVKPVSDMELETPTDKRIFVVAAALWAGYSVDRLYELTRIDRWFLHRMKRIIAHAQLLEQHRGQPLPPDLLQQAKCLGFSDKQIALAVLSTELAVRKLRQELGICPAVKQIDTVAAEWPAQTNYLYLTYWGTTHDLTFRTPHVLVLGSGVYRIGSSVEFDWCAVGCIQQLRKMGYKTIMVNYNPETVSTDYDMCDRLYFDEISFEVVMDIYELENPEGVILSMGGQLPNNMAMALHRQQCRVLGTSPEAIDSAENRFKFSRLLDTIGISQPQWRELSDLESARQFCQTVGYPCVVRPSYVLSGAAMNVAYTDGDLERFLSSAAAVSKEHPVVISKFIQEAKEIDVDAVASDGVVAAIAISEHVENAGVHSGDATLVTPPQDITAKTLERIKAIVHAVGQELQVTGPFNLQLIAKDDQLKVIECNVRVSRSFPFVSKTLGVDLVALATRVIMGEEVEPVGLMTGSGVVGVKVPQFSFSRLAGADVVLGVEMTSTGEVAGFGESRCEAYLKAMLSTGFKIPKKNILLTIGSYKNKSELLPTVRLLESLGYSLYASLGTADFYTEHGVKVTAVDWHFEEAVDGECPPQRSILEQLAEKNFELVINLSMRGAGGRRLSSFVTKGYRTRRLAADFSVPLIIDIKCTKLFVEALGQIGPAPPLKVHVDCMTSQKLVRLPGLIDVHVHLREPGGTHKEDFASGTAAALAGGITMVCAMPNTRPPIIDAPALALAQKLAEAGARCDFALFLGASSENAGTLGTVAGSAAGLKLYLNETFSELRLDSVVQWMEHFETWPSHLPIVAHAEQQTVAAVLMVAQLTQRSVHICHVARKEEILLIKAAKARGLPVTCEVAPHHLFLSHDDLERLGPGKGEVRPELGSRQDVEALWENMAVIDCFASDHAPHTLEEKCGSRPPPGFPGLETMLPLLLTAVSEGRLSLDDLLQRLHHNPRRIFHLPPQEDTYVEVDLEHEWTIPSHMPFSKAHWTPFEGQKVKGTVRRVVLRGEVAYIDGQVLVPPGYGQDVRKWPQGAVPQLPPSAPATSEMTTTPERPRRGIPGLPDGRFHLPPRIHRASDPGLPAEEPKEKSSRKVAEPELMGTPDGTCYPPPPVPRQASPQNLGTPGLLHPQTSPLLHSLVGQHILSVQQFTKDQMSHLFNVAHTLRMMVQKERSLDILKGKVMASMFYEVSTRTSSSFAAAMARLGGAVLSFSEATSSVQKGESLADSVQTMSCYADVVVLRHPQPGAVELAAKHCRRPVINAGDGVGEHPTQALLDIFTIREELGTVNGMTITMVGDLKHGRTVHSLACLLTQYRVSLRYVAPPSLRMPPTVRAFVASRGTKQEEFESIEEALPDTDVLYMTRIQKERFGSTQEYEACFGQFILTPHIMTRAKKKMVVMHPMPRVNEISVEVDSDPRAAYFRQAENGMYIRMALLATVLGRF
UniProt Q9Y6J0: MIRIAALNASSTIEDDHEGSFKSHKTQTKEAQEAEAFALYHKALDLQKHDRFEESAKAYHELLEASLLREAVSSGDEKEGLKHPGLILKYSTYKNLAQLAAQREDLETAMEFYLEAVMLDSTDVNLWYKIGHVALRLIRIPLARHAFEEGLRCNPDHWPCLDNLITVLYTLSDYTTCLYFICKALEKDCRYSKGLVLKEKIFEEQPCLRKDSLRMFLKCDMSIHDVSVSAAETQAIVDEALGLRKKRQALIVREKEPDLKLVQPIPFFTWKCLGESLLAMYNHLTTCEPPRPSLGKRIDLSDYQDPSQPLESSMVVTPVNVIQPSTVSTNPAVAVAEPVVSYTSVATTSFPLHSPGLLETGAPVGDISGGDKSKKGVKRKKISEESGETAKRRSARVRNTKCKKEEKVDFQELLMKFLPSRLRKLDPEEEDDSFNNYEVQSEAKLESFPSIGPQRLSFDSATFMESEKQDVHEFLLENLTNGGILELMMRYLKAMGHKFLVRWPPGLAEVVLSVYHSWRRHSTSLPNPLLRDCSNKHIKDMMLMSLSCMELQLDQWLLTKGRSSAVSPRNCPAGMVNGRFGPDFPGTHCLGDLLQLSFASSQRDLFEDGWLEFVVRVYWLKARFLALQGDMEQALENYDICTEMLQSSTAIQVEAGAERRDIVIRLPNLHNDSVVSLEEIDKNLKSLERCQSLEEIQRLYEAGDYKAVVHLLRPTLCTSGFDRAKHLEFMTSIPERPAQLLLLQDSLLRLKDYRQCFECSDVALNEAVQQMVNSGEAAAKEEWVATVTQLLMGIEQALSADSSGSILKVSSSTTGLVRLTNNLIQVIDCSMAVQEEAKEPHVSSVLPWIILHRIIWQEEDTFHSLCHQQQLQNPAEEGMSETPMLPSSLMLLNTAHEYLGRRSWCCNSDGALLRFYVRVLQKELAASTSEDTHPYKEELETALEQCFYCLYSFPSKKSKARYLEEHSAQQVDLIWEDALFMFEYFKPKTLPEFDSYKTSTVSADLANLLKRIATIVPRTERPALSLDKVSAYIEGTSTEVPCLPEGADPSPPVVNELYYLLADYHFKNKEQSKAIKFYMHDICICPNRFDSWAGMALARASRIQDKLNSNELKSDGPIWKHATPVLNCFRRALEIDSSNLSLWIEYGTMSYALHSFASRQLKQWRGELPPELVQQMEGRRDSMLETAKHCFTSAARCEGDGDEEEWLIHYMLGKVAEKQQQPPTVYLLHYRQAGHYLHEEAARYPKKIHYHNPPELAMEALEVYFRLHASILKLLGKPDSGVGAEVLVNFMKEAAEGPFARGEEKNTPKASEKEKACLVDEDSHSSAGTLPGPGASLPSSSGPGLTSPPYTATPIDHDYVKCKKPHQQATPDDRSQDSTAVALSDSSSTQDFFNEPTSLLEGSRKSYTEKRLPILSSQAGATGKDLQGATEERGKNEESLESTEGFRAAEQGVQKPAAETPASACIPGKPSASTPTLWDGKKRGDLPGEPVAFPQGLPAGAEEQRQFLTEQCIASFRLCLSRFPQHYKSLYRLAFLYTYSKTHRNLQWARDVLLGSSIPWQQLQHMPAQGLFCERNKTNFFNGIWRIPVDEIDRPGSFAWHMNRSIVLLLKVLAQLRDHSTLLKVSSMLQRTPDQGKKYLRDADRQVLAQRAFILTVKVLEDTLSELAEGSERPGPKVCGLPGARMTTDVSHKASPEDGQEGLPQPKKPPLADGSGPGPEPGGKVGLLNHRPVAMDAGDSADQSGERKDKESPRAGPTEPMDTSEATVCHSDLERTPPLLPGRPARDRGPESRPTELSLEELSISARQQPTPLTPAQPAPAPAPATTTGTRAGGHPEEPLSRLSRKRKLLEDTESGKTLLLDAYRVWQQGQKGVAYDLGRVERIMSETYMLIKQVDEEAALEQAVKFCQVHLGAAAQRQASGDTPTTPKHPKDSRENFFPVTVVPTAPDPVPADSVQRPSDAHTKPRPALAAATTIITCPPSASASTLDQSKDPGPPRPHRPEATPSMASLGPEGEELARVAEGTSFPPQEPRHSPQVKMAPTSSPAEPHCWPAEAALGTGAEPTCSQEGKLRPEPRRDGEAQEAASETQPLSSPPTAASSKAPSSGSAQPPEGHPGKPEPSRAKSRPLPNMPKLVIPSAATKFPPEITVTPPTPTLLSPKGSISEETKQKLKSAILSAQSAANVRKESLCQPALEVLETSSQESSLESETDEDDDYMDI
UniProt Q06187: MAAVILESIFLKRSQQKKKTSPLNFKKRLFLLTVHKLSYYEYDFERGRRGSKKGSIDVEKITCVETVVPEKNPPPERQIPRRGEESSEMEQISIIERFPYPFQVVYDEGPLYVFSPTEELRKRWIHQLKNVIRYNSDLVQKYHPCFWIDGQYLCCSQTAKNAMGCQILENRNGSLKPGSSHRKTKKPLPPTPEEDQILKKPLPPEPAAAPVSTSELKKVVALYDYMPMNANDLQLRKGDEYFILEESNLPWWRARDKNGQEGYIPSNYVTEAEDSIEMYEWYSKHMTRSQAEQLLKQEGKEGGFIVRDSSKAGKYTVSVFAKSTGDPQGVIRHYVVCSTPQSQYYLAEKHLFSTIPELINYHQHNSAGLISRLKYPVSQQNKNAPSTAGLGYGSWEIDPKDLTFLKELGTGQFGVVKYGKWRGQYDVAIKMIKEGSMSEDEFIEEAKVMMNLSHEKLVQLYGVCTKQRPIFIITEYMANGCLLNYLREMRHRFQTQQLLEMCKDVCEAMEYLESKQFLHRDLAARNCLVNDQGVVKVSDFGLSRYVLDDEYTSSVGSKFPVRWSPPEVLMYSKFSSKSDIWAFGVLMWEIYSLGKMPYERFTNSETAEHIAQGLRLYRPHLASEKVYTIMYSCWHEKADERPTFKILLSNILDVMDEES
UniProt Q13137: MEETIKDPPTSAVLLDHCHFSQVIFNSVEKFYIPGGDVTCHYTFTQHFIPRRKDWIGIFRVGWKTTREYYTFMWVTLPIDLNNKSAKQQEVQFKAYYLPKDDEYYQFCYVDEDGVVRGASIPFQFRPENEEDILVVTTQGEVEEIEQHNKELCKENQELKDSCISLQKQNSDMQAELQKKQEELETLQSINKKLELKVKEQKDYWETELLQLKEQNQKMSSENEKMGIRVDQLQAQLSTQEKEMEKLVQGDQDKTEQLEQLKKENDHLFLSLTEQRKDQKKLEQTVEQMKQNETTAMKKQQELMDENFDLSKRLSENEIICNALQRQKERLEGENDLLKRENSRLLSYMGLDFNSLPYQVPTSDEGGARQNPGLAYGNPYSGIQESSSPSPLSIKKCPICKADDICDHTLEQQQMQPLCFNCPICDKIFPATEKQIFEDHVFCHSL
UniProt Q10588: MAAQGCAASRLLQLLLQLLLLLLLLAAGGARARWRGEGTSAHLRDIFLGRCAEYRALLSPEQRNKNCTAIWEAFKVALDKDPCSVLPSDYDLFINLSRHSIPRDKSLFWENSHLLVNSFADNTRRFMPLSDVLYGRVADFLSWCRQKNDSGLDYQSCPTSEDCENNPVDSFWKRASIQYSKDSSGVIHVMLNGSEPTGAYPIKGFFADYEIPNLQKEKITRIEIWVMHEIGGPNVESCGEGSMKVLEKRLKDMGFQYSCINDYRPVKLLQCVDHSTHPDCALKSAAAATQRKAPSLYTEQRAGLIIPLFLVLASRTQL
UniProt Q92994: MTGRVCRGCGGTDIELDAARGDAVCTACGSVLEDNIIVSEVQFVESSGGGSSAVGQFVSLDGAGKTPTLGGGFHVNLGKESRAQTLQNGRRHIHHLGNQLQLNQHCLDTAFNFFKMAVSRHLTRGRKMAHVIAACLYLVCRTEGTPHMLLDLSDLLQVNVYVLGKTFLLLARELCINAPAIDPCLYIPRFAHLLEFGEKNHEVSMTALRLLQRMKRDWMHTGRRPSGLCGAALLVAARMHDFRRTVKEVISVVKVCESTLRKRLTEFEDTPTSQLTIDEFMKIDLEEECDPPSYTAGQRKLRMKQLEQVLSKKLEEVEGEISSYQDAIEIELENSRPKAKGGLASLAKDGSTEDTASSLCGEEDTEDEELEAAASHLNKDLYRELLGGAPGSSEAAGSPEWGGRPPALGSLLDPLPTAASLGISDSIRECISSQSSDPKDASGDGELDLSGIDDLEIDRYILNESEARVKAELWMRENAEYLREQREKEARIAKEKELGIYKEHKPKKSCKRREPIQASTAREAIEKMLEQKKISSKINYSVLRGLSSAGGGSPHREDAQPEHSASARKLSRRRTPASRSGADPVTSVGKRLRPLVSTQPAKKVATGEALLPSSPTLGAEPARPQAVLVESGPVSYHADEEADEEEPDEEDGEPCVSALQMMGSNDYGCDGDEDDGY

Compound: Cc1cc(ccc1-c1ccccc1)C(=O)N1CCCN(CC1)C(=O)CCl [compound 10]
Experiment: probe-labelled cysteine peptide fold change vs DMSO (competition) (log2 fold change); higher = less target engagement (more negative = stronger competition)
Settings: THP-1, incubation time: 4 h
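Note: competitive profiling in live THP-1 cells: cysteine peptides tagged with an iodoacetamide desthiobiotin (IA-DTB) probe, intensity after compound treatment relative to DMSO-treated cells.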

Row | Target | probe-labelled cysteine peptide fold change (10 µM) | probe-labelled cysteine peptide fold change (50 µM)
1 | BRD1_O95696_199_ESHCENQK (UniProt O95696) | -0.126 | -0.432
2 | BUD31_P41223_137+139_IIECTHCGCR (UniProt P41223) | 0.131 | -0.351
3 | BRIX1_Q8TDN6_52_HATAEEVEEEERDRIPGPVCK (UniProt Q8TDN6) | -0.222 | -0.542
4 | CAMK1_Q14012_267_FTCEQALQHPWIAGDTALDK (UniProt Q14012) | -0.0147 | 0.0482
5 | C3orf38_Q5JPI3-2_12_SGLSFSEMEGCR (UniProt Q5JPI3) | 0.0149 | 0.272
6 | BRD8_Q9H0E9_26_LCLASSVMR (UniProt Q9H0E9) | -0.0834 | -0.169
7 | CAMSAP1_Q5T5Y3_947_EYSQHNGEDCGDAVSK (UniProt Q5T5Y3) | -0.0676 | -0.29
8 | CAD_P27708_1682_QDVEALWENMAVIDCFASDHAPHTLEEK (UniProt P27708) | -0.0682 | 0.156
9 | C12orf10_Q9HB07_56_IGTHNGTFHCDEALACALLR (UniProt Q9HB07) | -0.136 | -0.185
10 | CAD_P27708_1455_VHVDCMTSQK (UniProt P27708) | 0.0565 | -0.0422
11 | CABIN1_Q9Y6J0_717_AVVHLLRPTLCTSGFDR (UniProt Q9Y6J0) | -0.149 | -0.078
12 | BRMS1_Q9HCU9_60_SECVSEMLDLEK (UniProt Q9HCU9) | 0.0333 | 0.096
13 | C3orf80_F5H4A9_177_SDPSCASEHEMR (UniProt F5H4A9) | -0.0873 | 0.137
14 | CAD_P27708_1636_GLPVTCEVAPHHLFLSHDDLER (UniProt P27708) | -0.08 | -0.0722
15 | C7_P10643_743_RILPLTVCK (UniProt P10643) | -0.416 | -0.508
16 | CAND1_Q86VP6_802_CVAALTR (UniProt Q86VP6) | 0.211 | -0.156
17 | CANX_P27824_360+366_CESAPGCGVWQR (UniProt P27824) | 0.0445 | 0.401
18 | BRCA1_P38398_226_AACEFSETDVTNTEHHQPSNNDLNTTEK (UniProt P38398) | 0.0383 | 0.015
19 | BRIX1_Q8TDN6_52_IPGPVCK (UniProt Q8TDN6) | -0.292 | -0.284
20 | BTK_Q06187_63_ITCVETVVPEK (UniProt Q06187) | -0.182 | 0.117
21 | CAD_P27708_1613_SVHICHVAR (UniProt P27708) | 0.0918 | 0.483

Row | Target | probe-labelled cysteine peptide fold change (10 µM) | probe-labelled cysteine peptide fold change (50 µM)
22 | CALCOCO2_Q13137_163_DSCISLQK (UniProt Q13137) | -0.176 | -0.236
23 | C19orf54_Q5BKX5_226_DLVLQHLVTGHPLLIPYDEDFNHEPCQR (UniProt Q5BKX5) | 0.0102 | -0.0625
24 | BUD31_P41223_139_IIECTHCGCR (UniProt P41223) | 0.134 | -0.0284
25 | C7orf50_Q9BRJ6_107_SGAELALDYLCR (UniProt Q9BRJ6) | 0.126 | 0.192
26 | BST1_Q10588_238_IEIWVMHEIGGPNVESCGEGSMK (UniProt Q10588) | -0.336 | -0.0502
27 | CAMK2D_Q13557_7_ASTTTCTR (UniProt Q13557) | 0.473 | 0.378
28 | C5orf51_A6NDU8_244_YCADQQPENHEVDTSVSGAGCTTYKEPLDFR (UniProt A6NDU8) | -0.12 | -0.542
29 | BRD9_Q9H8M2_288_EVISCMFEPEGNACSLTDSTAEEHVLALVEHAADEAR (UniProt Q9H8M2) | 0.126 | -0.0582
30 | BTF3_P20290_22_GGCPGGEATLSQPPPR (UniProt P20290) | -0.162 | -0.255
31 | BUB3_O43684_62_YQHTGAVLDCAFYDPTHAWSGGLDHQLK (UniProt O43684) | 0.12 | 0.1
32 | CA13_Q8N1Q1_232_SLLCTAEGEAAAFLVSNHRPPQPLK (UniProt Q8N1Q1) | 0.0791 | 0.353
33 | CAMLG_P49069_123_GTQLGDKLDSFIKPPECSSDVNLELR (UniProt P49069) | -0.255 | -0.43
34 | BUB1B_O60566_767_EIELGNEDYCIKR (UniProt O60566) | 0.0723 | -0.437
35 | BTK_Q06187_337_HYVVCSTPQSQYYLAEK (UniProt Q06187) | 0.0975 | 0.0391
36 | BUD31_P41223_119_DTNFGTNCICR (UniProt P41223) | 0.0661 | -0.161
37 | BRD9_Q9H8M2_101_EHCDTEGEADDFDPGK (UniProt Q9H8M2) | -0.0619 | -0.179
38 | BRF1_Q92994_9_GCGGTDIELDAAR (UniProt Q92994) | -0.0432 | 0.35
39 | CAMK2D_Q13557_116+127_EYYSEADASHCIQQILESVNHCHLNGIVHR (UniProt Q13557) | -0.00685 | 0.0696
40 | BRIX1_Q8TDN6_52_RHATAEEVEEEERDRIPGPVCK (UniProt Q8TDN6) | -0.278 | -0.296
41 | BRD1_O95696_294_TDDDRWGHVVCALWIPEVGFANTVFIEPIDGVR (UniProt O95696) | -0.0156 | 0.0676
42 | BTBD2_Q9BX70_241_LFDEPQLASLCLENIDK (UniProt Q9BX70) | -0.0428 | -0.00716

Row | Target | probe-labelled cysteine peptide fold change (10 µM) | probe-labelled cysteine peptide fold change (50 µM)
43 | CAMK2D_Q13557_290_QETVDCLK (UniProt Q13557) | -0.354 | 0.397
44 | CAMKK1_Q8N5S9_351_CPFIDDFILALHR (UniProt Q8N5S9) | 0.369 | -0.0797
45 | CANX_P27824_160_LNKPFLFDTKPLIVQYEVNFQNGIECGGAYVK (UniProt P27824) | -0.125 | -0.0963
46 | C5orf51_A6NDU8_268_YVSVCEGPLK (UniProt A6NDU8) | -0.0462 | 0.0945
47 | BRF1_Q92994_106_HIHHLGNQLQLNQHCLDTAFNFFK (UniProt Q92994) | -0.0985 | -0.404
48 | CABIN1_Q9Y6J0_1197_CEGDGDEEEWLIHYMLGK (UniProt Q9Y6J0) | -0.261 | -0.0151
49 | CALCOCO2_Q13137_321_LSENEIICNALQR (UniProt Q13137) | -0.106 | -0.107
50 | C16orf62_Q7Z3J2_614_HQQEPTKDPVILNALLHVCK (UniProt Q7Z3J2) | 0.235 | 0.0739
51 | C6orf106_Q9H6K1_147_SLEPQEIADVSVQMCSPSR (UniProt Q9H6K1) | -0.139 | 0.0666
52 | CABIN1_Q9Y6J0_1769_AGPTEPMDTSEATVCHSDLER (UniProt Q9Y6J0) | -0.0411 | 0.0496
53 | BRIP1_Q9BX63_401_EQVVILDEAHNIEDCAR (UniProt Q9BX63) | -0.207 | -0.335
54 | BUD31_P41223_78_ELYEYCIK (UniProt P41223) | 0.154 | 0.0166
55 | CAMSAP1_Q5T5Y3_1379_EESCSDSGTK (UniProt Q5T5Y3) | -0.0703 | 0.0443
56 | BUB1B_O60566_700_CLQIPEK (UniProt O60566) | 0.325 | 0.341
57 | C16orf62_Q7Z3J2_925_HGCADTR (UniProt Q7Z3J2) | -0.186 | -0.0505
58 | C9orf78_Q9NZ63_145_NAEDCLYELPENIR (UniProt Q9NZ63) | -0.158 | -0.119
59 | BRCC3_P46736_38_EEVMGLCIGELNDDTR (UniProt P46736) | 0.0386 | 0.0847
60 | C5_P01031_1553_KQTACKPEIAYAYK (UniProt P01031) | -0.117 | 0.0192
61 | CAP1_Q01518_375_INSITVDNCKK (UniProt Q01518) | 0.0183 | -0.152
62 | CAD_P27708_2016_GESLADSVQTMSCYADVVVLR (UniProt P27708) | 0.0676 | -0.127
63 | BRWD3_Q6RI45_202_IFTGSDDCLVK (UniProt Q6RI45) | 0.159 | 0.182

Row | Target | probe-labelled cysteine peptide fold change (10 µM) | probe-labelled cysteine peptide fold change (50 µM)
64 | BTN2A1_Q7KYR7_475_SHIYTCPR (UniProt Q7KYR7) | 0.103 | -0.13
65 | C8G_P07360_188_YGFCEAADQFHVLDEVR (UniProt P07360) | -0.615 | -0.459
66 | CAND1_Q86VP6_179_QGGLLVNFHPSILTCLLPQLTSPR (UniProt Q86VP6) | 0.326 | 0.182
67 | C16orf62_Q7Z3J2_454_ECDESGFPK (UniProt Q7Z3J2) | -0.298 | -0.132
68 | BTAF1_O14981_1579_LCNHPALVLTPQHPEFK (UniProt O14981) | 0.0545 | 0.332
69 | CAMK1D_Q8IU85_270_YTCEQAAR (UniProt Q8IU85) | -0.161 | -0.0763
70 | CAD_P27708_379_LCPPGIPTPGSGLPPPR (UniProt P27708) | 0.107 | 0.247
71 | C1orf50_Q9BV19_189_ISMMDTLLSQSVALPPCTEPNFQGLTH (UniProt Q9BV19) | -0.117 | 0.0779
72 | CAP1_Q01518_375_INSITVDNCK (UniProt Q01518) | 0.0698 | 0.28
73 | CAD_P27708_280_GHNQPCLLVGSGR (UniProt P27708) | 0.147 | 0.0995
74 | BST1_Q10588_259_DMGFQYSCINDYRPVK (UniProt Q10588) | -0.226 | -0.0265
75 | BRCA1_P38398_1251_HSTVATECLSK (UniProt P38398) | -0.00703 | 0.0124
76 | BRD4_O60885_429_LMFSNCYK (UniProt O60885) | 0.0685 | 0.0127
77 | BYSL_Q13895_381_ELPVLWHQCLLTLVQR (UniProt Q13895) | -0.00198 | 0.153
78 | CAMK2G_Q13555_549_WLNVHYHCSGAPAAPLQ (UniProt Q13555) | 0.219 | -0.0639
79 | CAP1_Q01518_356_CVNTTLQIK (UniProt Q01518) | 0.0826 | 0.165
80 | BTBD10_Q9BSF8_239_CPDGISIPELR (UniProt Q9BSF8) | -0.125 | -0.712
81 | C8orf33_Q9H7E9_21_AALGHLAGEAAAAPGPGTPCASR (UniProt Q9H7E9) | -0.0887 | 0.113
82 | CACYBP_Q9HB71_154_TDTVLILCR (UniProt Q9HB71) | -0.0272 | 0.0646
